{"source": "PubChem BioAssay AID1224831 (NIAID, 2016)", "assay": "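Genes that support or restrain LPS-induced TNF-alpha reporter activity in macrophage-like cells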 (follow-up of hits)", "cell system": "human THP-1 B5 monocytic leukaemia cells carrying a TNF promoter luciferase reporter, made macrophage-like with PMA", "reagent": "single siRNA against human genes, 50 nM", "time to read-out": "about 68 h of knock-down, then 4 h LPS", "conditions": "LPS (Salmonella minnesota, TLR-grade) at 10 ng/ml for 4 h; PMA 5 ng/ml present during knock-down", "measured": "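Firefly to renilla luciferase ratio of a TNF promoter reporter after 4 h LPS, scaled to plate median, turned into robust z-score, averaged over replicates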", "reading the numbers": "TNF reporter z-score: higher = stronger LPS-induced TNF reporter signal; z-score, median over gene's siRNAs: higher = stronger TNF reporter signal across the gene's siRNAs", "hit rule": "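Two-sided call: reduced or raised TNF reporter signal counts as active once mean z reaches about -1 or below, or about 1.5 or above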", "calls": "active = changed TNF reporter (either direction); inactive = little change", "note": "In all, the deposit lists about 3,500 reagents; shown is a random part of them. 731 of them (21%) count as active. 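Active means either lowered or raised reporter signal; the gene-median score did not drive the per-siRNA calls.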 The numbers tell different reagents against one gene apart."}
{"gene knocked down": "SRD5A2", "reagent": 1, "TNF reporter z-score, replicate mean": 0.1, "z-score, median over gene's siRNAs": 0.1, "Call": "inactive"}
{"gene knocked down": "SRD5A2", "reagent": 2, "TNF reporter z-score, replicate mean": -0.04, "z-score, median over gene's siRNAs": 0.1, "Call": "inactive"}
{"gene knocked down": "SRD5A2", "reagent": 3, "TNF reporter z-score, replicate mean": 0.1, "z-score, median over gene's siRNAs": 0.1, "Call": "inactive"}
{"gene knocked down": "SRD5A2", "reagent": 4, "TNF reporter z-score, replicate mean": 0.63, "z-score, median over gene's siRNAs": 0.1, "Call": "inactive"}
{"gene knocked down": "SRD5A2", "reagent": 5, "TNF reporter z-score, replicate mean": 0.24, "z-score, median over gene's siRNAs": 0.1, "Call": "inactive"}
{"gene knocked down": "SRD5A2", "reagent": 6, "TNF reporter z-score, replicate mean": -0.77, "z-score, median over gene's siRNAs": 0.1, "Call": "inactive"}
{"gene knocked down": "ARTN", "reagent": 1, "TNF reporter z-score, replicate mean": -0.08, "z-score, median over gene's siRNAs": -0.93, "Call": "inactive"}
{"gene knocked down": "ARTN", "reagent": 2, "TNF reporter z-score, replicate mean": -1.24, "z-score, median over gene's siRNAs": -0.93, "Call": "active"}
{"gene knocked down": "ARTN", "reagent": 3, "TNF reporter z-score, replicate mean": -1.02, "z-score, median over gene's siRNAs": -0.93, "Call": "active"}
{"gene knocked down": "ARTN", "reagent": 4, "TNF reporter z-score, replicate mean": -0.84, "z-score, median over gene's siRNAs": -0.93, "Call": "inactive"}
{"gene knocked down": "ARTN", "reagent": 5, "TNF reporter z-score, replicate mean": -0.11, "z-score, median over gene's siRNAs": -0.93, "Call": "inactive"}
{"gene knocked down": "ARTN", "reagent": 6, "TNF reporter z-score, replicate mean": -1.45, "z-score, median over gene's siRNAs": -0.93, "Call": "active"}
{"gene knocked down": "PSMC1", "reagent": 1, "TNF reporter z-score, replicate mean": -1.69, "z-score, median over gene's siRNAs": -1.27, "Call": "active"}
{"gene knocked down": "PSMC1", "reagent": 2, "TNF reporter z-score, replicate mean": -0.99, "z-score, median over gene's siRNAs": -1.27, "Call": "inactive"}
{"gene knocked down": "PSMC1", "reagent": 3, "TNF reporter z-score, replicate mean": -1.81, "z-score, median over gene's siRNAs": -1.27, "Call": "active"}
{"gene knocked down": "PSMC1", "reagent": 4, "TNF reporter z-score, replicate mean": -0.82, "z-score, median over gene's siRNAs": -1.27, "Call": "inactive"}
{"gene knocked down": "PSMC1", "reagent": 5, "TNF reporter z-score, replicate mean": -0.43, "z-score, median over gene's siRNAs": -1.27, "Call": "inactive"}
{"gene knocked down": "PSMC1", "reagent": 6, "TNF reporter z-score, replicate mean": -1.55, "z-score, median over gene's siRNAs": -1.27, "Call": "active"}
{"gene knocked down": "TMEM200B", "reagent": 1, "TNF reporter z-score, replicate mean": -0.15, "z-score, median over gene's siRNAs": 0.565, "Call": "inactive"}
{"gene knocked down": "TMEM200B", "reagent": 2, "TNF reporter z-score, replicate mean": 1.93, "z-score, median over gene's siRNAs": 0.565, "Call": "active"}
{"gene knocked down": "TMEM200B", "reagent": 3, "TNF reporter z-score, replicate mean": -0.04, "z-score, median over gene's siRNAs": 0.565, "Call": "inactive"}
{"gene knocked down": "TMEM200B", "reagent": 4, "TNF reporter z-score, replicate mean": 1.14, "z-score, median over gene's siRNAs": 0.565, "Call": "inactive"}
{"gene knocked down": "TMEM200B", "reagent": 5, "TNF reporter z-score, replicate mean": 0.44, "z-score, median over gene's siRNAs": 0.565, "Call": "inactive"}
{"gene knocked down": "TMEM200B", "reagent": 6, "TNF reporter z-score, replicate mean": 0.69, "z-score, median over gene's siRNAs": 0.565, "Call": "inactive"}
{"gene knocked down": "C5AR2", "reagent": 1, "TNF reporter z-score, replicate mean": 0.23, "z-score, median over gene's siRNAs": -0.47, "Call": "inactive"}
{"gene knocked down": "C5AR2", "reagent": 2, "TNF reporter z-score, replicate mean": -0.57, "z-score, median over gene's siRNAs": -0.47, "Call": "inactive"}
{"gene knocked down": "C5AR2", "reagent": 3, "TNF reporter z-score, replicate mean": 0.48, "z-score, median over gene's siRNAs": -0.47, "Call": "inactive"}
{"gene knocked down": "C5AR2", "reagent": 4, "TNF reporter z-score, replicate mean": -0.74, "z-score, median over gene's siRNAs": -0.47, "Call": "inactive"}
{"gene knocked down": "C5AR2", "reagent": 5, "TNF reporter z-score, replicate mean": -0.76, "z-score, median over gene's siRNAs": -0.47, "Call": "inactive"}
{"gene knocked down": "C5AR2", "reagent": 6, "TNF reporter z-score, replicate mean": -0.37, "z-score, median over gene's siRNAs": -0.47, "Call": "inactive"}
{"gene knocked down": "MAN1B1", "reagent": 1, "TNF reporter z-score, replicate mean": -1.08, "z-score, median over gene's siRNAs": 0.365, "Call": "active"}
{"gene knocked down": "MAN1B1", "reagent": 2, "TNF reporter z-score, replicate mean": 9.49, "z-score, median over gene's siRNAs": 0.365, "Call": "active"}
{"gene knocked down": "MAN1B1", "reagent": 3, "TNF reporter z-score, replicate mean": 0.77, "z-score, median over gene's siRNAs": 0.365, "Call": "inactive"}
{"gene knocked down": "MAN1B1", "reagent": 4, "TNF reporter z-score, replicate mean": -0.12, "z-score, median over gene's siRNAs": 0.365, "Call": "inactive"}
{"gene knocked down": "MAN1B1", "reagent": 5, "TNF reporter z-score, replicate mean": -0.04, "z-score, median over gene's siRNAs": 0.365, "Call": "inactive"}
{"gene knocked down": "MAN1B1", "reagent": 6, "TNF reporter z-score, replicate mean": 0.81, "z-score, median over gene's siRNAs": 0.365, "Call": "inactive"}
{"gene knocked down": "SOWAHB", "reagent": 1, "TNF reporter z-score, replicate mean": -1.45, "z-score, median over gene's siRNAs": -0.81, "Call": "active"}
{"gene knocked down": "SOWAHB", "reagent": 2, "TNF reporter z-score, replicate mean": 0.94, "z-score, median over gene's siRNAs": -0.81, "Call": "inactive"}
{"gene knocked down": "SOWAHB", "reagent": 3, "TNF reporter z-score, replicate mean": 1.22, "z-score, median over gene's siRNAs": -0.81, "Call": "inactive"}
{"gene knocked down": "SOWAHB", "reagent": 4, "TNF reporter z-score, replicate mean": -1.09, "z-score, median over gene's siRNAs": -0.81, "Call": "active"}
{"gene knocked down": "SOWAHB", "reagent": 5, "TNF reporter z-score, replicate mean": -1.12, "z-score, median over gene's siRNAs": -0.81, "Call": "active"}
{"gene knocked down": "SOWAHB", "reagent": 6, "TNF reporter z-score, replicate mean": -0.53, "z-score, median over gene's siRNAs": -0.81, "Call": "inactive"}

Entries listed so far whose gene name begins with C or c (6):
{"gene knocked down": "C5AR2", "reagent": 1, "TNF reporter z-score, replicate mean": 0.23, "z-score, median over gene's siRNAs": -0.47, "Call": "inactive"}
{"gene knocked down": "C5AR2", "reagent": 2, "TNF reporter z-score, replicate mean": -0.57, "z-score, median over gene's siRNAs": -0.47, "Call": "inactive"}
{"gene knocked down": "C5AR2", "reagent": 3, "TNF reporter z-score, replicate mean": 0.48, "z-score, median over gene's siRNAs": -0.47, "Call": "inactive"}
{"gene knocked down": "C5AR2", "reagent": 4, "TNF reporter z-score, replicate mean": -0.74, "z-score, median over gene's siRNAs": -0.47, "Call": "inactive"}
{"gene knocked down": "C5AR2", "reagent": 5, "TNF reporter z-score, replicate mean": -0.76, "z-score, median over gene's siRNAs": -0.47, "Call": "inactive"}
{"gene knocked down": "C5AR2", "reagent": 6, "TNF reporter z-score, replicate mean": -0.37, "z-score, median over gene's siRNAs": -0.47, "Call": "inactive"}
